Measured values published in patent publication US20260151620A1, “IMPLANT MEDICAL DEVICES” (Case Western Reserve University, priority 2021, published 2026).

Experiment: In vitro drug release from drug-loaded titania nanotube arrays (TNAs) in PBS at 37° C.
Format: physicochemical
Method: A total of 500 μL of DEX solution was pipetted onto the nanotube surface (pipetting 100 μL for 5 times) and allowed to dry in fume hood for an hour, ensuring that the nanotube array surface was completely dry prior to each pipetting and the release studies. Then, DEX-loaded TNA samples were immersed in Eppendorf tubes containing 100 μL of PBS (1× phosphate buffered saline) and were placed in a water bath kept at 37° C. For release measurements, all 100 μL from each releasing sample tube was transferred to a 96-well plate and measured using a SpectraMax M 2 Microplate Reader. The absorption of DEX was measured at 244 nm. After each measurement, the releasing medium was fully replaced with […] of fresh PBS.

With `C[C@@H]1C[C@H]2[C@@H]3CCC4=CC(=O)C=C[C@]4(C)[C@@]3(F)[C@@H](O)C[C@]2(C)[C@@]1(O)C(=O)COP(=O)(O)O` [Dexamethasone, dexamethasone sodium phosphate] the “duration of linear release” value (TNAs on polyimide and foil substrates, PBS) was “several weeks” and the “duration of linear release” value (~0.5 μm-deep, 100 nm-diameter TNAs on polyimide) was “at least 7 weeks”.
